{
  "source": "paper doi:10.1101/2022.09.15.508156",
  "target": "GST-CBUA0027 (Coxiella burnetii) (UniProt H7C7G0)",
  "assay": "pull-down",
  "note": "These are yes or no findings as the source states them, for the method shown. In cells and extracts the contact can be indirect. A result given as binding can be weak or reduced; the word gives no strength.",
  "data": [
    {"substance": "CBUA0028-V5-6xHis (from UniProt B5U8Q4)", "values": [
      {"measurement": "binding", "value": "binds"}
    ]}
  ]
}
